This passage reports binding results from PMC9560818.

Sequences of proteins named here, by UniProt entry; tags and fusion partners are left off.
UniProt Q92831: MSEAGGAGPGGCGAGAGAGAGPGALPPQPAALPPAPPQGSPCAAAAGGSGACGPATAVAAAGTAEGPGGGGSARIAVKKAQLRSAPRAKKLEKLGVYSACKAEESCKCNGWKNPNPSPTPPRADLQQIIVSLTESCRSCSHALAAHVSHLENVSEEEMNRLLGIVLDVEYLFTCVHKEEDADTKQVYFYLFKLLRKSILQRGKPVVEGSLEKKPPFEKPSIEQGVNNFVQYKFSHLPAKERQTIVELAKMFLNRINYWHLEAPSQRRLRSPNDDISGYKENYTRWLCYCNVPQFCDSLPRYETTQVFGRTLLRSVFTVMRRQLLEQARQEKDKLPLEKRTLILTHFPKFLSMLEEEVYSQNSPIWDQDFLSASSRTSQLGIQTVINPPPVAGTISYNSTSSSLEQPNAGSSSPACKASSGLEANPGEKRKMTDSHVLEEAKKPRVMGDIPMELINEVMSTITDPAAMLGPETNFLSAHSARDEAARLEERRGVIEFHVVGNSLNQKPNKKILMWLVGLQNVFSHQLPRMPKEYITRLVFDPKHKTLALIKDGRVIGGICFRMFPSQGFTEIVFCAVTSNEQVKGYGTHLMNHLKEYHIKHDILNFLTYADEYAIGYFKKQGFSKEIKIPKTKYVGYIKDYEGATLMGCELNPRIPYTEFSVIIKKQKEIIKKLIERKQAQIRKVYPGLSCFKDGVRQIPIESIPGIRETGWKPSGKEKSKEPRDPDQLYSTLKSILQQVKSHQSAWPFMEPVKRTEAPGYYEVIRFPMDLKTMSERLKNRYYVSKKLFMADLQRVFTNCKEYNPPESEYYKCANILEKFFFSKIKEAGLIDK
UniProt P46937: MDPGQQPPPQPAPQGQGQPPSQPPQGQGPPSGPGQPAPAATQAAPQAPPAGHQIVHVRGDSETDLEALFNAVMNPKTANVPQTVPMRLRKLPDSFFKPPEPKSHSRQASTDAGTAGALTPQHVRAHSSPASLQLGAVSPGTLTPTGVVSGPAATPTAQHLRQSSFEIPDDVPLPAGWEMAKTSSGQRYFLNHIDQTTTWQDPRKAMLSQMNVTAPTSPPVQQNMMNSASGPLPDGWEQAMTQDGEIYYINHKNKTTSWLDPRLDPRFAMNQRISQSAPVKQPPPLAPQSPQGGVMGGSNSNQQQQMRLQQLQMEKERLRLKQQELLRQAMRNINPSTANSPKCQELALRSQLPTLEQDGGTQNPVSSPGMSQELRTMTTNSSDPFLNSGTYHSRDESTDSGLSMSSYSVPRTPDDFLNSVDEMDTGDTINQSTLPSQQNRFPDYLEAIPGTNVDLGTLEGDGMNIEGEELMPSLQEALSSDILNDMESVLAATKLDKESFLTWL
UniProt Q00987: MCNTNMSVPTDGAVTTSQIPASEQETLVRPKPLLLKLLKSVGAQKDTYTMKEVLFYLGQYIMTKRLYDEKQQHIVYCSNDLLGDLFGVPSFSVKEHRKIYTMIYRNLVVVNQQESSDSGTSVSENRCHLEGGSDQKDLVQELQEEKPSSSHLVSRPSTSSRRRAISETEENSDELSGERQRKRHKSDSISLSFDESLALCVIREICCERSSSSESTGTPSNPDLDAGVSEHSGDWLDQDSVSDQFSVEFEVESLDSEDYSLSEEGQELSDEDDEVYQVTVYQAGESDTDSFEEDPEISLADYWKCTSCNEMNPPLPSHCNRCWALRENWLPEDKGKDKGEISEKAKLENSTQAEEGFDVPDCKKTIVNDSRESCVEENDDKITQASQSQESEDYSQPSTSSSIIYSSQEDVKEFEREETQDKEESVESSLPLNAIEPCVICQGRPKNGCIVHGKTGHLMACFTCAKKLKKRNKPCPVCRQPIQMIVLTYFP
UniProt Q9GZV5: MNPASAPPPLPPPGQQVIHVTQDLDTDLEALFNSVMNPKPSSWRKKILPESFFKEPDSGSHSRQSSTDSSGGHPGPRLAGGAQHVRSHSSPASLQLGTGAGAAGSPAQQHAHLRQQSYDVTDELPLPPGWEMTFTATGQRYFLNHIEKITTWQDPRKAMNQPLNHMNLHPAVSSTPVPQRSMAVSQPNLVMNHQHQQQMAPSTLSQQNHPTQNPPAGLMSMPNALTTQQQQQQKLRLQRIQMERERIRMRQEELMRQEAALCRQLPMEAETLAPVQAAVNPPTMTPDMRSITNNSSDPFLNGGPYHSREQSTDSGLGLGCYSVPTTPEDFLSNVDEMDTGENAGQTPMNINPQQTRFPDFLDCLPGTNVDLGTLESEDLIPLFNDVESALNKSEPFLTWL

No constants are given. Whether binding was seen depends on the method and setting. Binding seen in cells or lysates may run through a third protein. Some binding calls cover weakened binding; strength is not graded here.

Holding throughout (test): co-IP; HUVECs transfected with a tagged plasmid, stimulated with PBS or PA for 48 h, lysed in co-IP buffer with protease inhibitors; Flag-tagged or His-tagged magnetic beads incubated with the lysates at 4°C overnight, washed with PBST three times; western blotting
In general terms: In western blotting, separated proteins are transferred to a membrane and probed.

In assay [1] the target is Flag-tagged P300/CBP-Associated Factor (PCAF) (UniProt Q92831).
Assay [2] has as its target Flag-tagged Yes1 Associated Transcriptional Regulator (YAP) (UniProt P46937).
In another assay the target is His-tagged MDM2 (UniProt Q00987).

Regarding “MDM2, endogenous in HUVECs (from UniProt Q00987 1-491)”, the binding entry in assay [1] is “binds”.

As for “P300/CBP-Associated Factor (PCAF), endogenous in HUVECs (from UniProt Q92831 1-832)”, the binding result (in assay [2]; with His-tagged MDM2) was “binds” throughout.

For “TAZ (also known as WWTR1), endogenous in HUVECs (from UniProt Q9GZV5 1-400)”, in assay [1], the binding entry is “binds”.

Regarding “Yes1 Associated Transcriptional Regulator (YAP), endogenous in HUVECs (from UniProt P46937 1-504)”, in assay [1], the binding entry is reported as “binds”.
